Data taken from patent US7037893 (dated 2006).

Test: general procedure: Fmoc solid-phase peptide synthesis; TentaGel resin SPHB-Lys(Boc)-Fmoc (0.22 mmol/g); HOBt/TBTU/NMM
Conditions: whole synthesis, scale of the general procedure 1.00 g resin

H-Thr-Pro-Arg-Val-Glu-Arg-Asn(Glc)-Gly-His-Ser-Val-Phe-Leu-Ala-Pro-Tyr-Gly-Trp-Met-Val-Lys-OH
final HPLC purity: greater than 97%
